Laboratory results: patent publication US6984718B2 (Cytovia, Inc., priority 1998, dated 2006)

System: HL-60 cells
Assay: Staining of HL-60 cells with dye, epifluorescence microscopy
Assay type: cell-based
Conditions: 10 μM dye
With `Nc1ccc2c(c1)Oc1cc(NC(=O)c3c(F)c(F)c(F)c(F)c3F)ccc1C21OC(=O)c2ccccc21` (stereo not drawn) [N-pentafluorobenzoyl-Rhodamine 110, N-Pentafluorobenzoyl-Rhodamine 110] the “viewing period during which signal intensity remained constant” value was “at least 15 minutes”.

Same assay, conditions: 10 μM dye, 2 hours at 37° C.
With `Nc1ccc2c(c1)Oc1cc(NC(=O)c3c(F)c(F)c(F)c(F)c3F)ccc1C21OC(=O)c2ccccc21` (stereo not drawn) [N-pentafluorobenzoyl-Rhodamine 110, N-Pentafluorobenzoyl-Rhodamine 110] the “fluorescent signal emitted by stained cells” value was “strong yellowish-green fluorescent signal”. With `Cl.N=c1ccc2c(-c3ccccc3C(=O)O)c3ccc(N)cc3oc-2c1` [Rhodamine 110, reference compound] the “fluorescent signal emitted by stained cells” value was “strong yellowish-green fluorescent signal”.

Same assay, conditions: 10 μM dye, resuspended in fresh medium without dye
For `Nc1ccc2c(c1)Oc1cc(NC(=O)c3c(F)c(F)c(F)c(F)c3F)ccc1C21OC(=O)c2ccccc21` (stereo not drawn) [N-pentafluorobenzoyl-Rhodamine 110, N-Pentafluorobenzoyl-Rhodamine 110], the “retention of fluorescent signal in cells over time” value was “well retained by the cells”. In the case of `Cl.N=c1ccc2c(-c3ccccc3C(=O)O)c3ccc(N)cc3oc-2c1` [Rhodamine 110, reference compound], the “retention of fluorescent signal in cells over time” value is reported as “rapidly faded with time”.

System: not listed separately
Assay: general procedure: solution-phase peptide synthesis; EDC
Conditions: conjugation step
“N-[Ac-Asp(OBut)-Glu(OBut)-Val-Asp(OBut)]-N′-(2,3,4,5-tetrafluorobenzoyl)-Rhodamine 110 (SEQ ID NO:5)” gave a conjugation yield of 27%. In the case of “N-[Ac-Asp(OBut)-Glu(OBut)-Val-Asp(OBut)]-N′-pentafluorobenzoyl-Rhodamine 110 (SEQ ID NO:5)”, the conjugation yield is reported as 53%. “N-[Ac-Asp(OEt)-Glu(OEt)-Val-Asp(OEt)]-N′-pentafluorobenzoyl-Rhodamine 110 (SEQ ID NO:5)” gave a conjugation yield of 45%. For “N-[Ddz-Asp(OBut)-Glu(OBut)-Val-Asp(OBut)]-N′-pentafluorobenzoyl-Rhodamine 110 (SEQ ID NO:5)”, the conjugation yield was 21%. “N-[Z-Asp(OBut)-Glu(OBut)-Val-Asp(OBut)]-N′-pentafluorobenzoyl-Rhodamine 110 (SEQ ID NO:5)” showed a conjugation yield of 38%.

Same assay, conditions: coupling step
“N-(Z-Ala-Ala-Ala-Ala)-N′-pentafluorobenzoyl-Rhodamine 110 (SEQ ID NO:77)” showed a step yield of 61%. Work on “N-[Z-Asp(OBut)-Glu(OBut)-Val-Asp(OBut)-Gly-Gly]-N′-pentafluorobenzoyl-Rhodamine 110 (SEQ ID NO:75)” yielded a step yield of 49%. For “N-[Z-Asp(OBut)-Glu(OBut)-Val-Asp(OBut)-Gly]-N′-pentafluorobenzoyl-Rhodamine 110 (SEQ ID NO:5)”, the step yield was 78%. “N-[Z-Glu(OBut)-Val-Asp(OBut)-Gly]-N′-pentafluorobenzoyl-Rhodamine 110 (SEQ ID NO:71)” showed a step yield of 45%.

Same assay, conditions: late stage modification step
“N-(Ac-Asp-Glu-Val-Asp)-N′-(2,3,4,5-tetrafluorobenzoyl)-Rhodamine 110 (SEQ ID NO:5)” showed a step yield of 99%. In the case of “N-(Ac-Asp-Glu-Val-Asp)-N′-pentafluorobenzoyl-Rhodamine 110 (SEQ ID NO:5)”, the step yield is reported as 89%/. “N-(Octanoyl-Asp-Glu-Val-Asp)-N′-pentafluorobenzoyl -Rhodamine 110 (SEQ ID NO:5)” showed a step yield of 96%. Work on “N-(Pentafluorobenzoyl-Asp-Glu-Val-Asp)-N′-pentafluorobenzoyl-Rhodamine 110 (SEQ ID NO:5)” yielded a step yield of 35%. In the case of “N-(Z-Asp-Glu-Val-Asp)-N′-(2,4-bis(dodecanemercapto)-3,5,6-trifluorobenzoyl)Rhodamine 110 (SEQ ID NO:5)”, the step yield is reported as 84%. Work on “N-(Z-Asp-Glu-Val-Asp)-N′-pentafluorobenzoyl-Rhodamine 110 (SEQ ID NO:5)” yielded a step yield of 100%. For “N-(Z-Asp-Glu-Val-Asp-Gly)-N′-pentafluorobenzoyl-Rhodamine 110 (SEQ ID NO:76)”, the step yield was 91%. Work on “N-(Z-Asp-Glu-Val-Asp-Gly-Gly)-N′-pentafluorobenzoyl-Rhodamine 110 (SEQ ID NO:75)” yielded a step yield of 98%. Molecule “N-[Pentafluorobenzoyl-Asp(OBut)-Glu(OBut)-Val-Asp(OBut)]-N′-pentafluorobenzoyl-Rhodamine 110 (SEQ ID NO:5)” has a step yield of 40%. With “N—[H2N-Asp(OBut)-Glu(OBut)-Val-Asp(OBut)]-N′-pentafluorobenzoyl-Rhodamine 110 (SEQ ID NO:5)” the step yield was 78%.

Same assay, conditions: late stage modification step, HBr
“N-(Asp-Glu-Val-Asp)-N′-pentafluorobenzoyl-Rhodamine 110 HBr (SEQ ID NO:5)” showed a step yield of 92%.

Same assay, conditions: lipidation step
In the case of “N-[Octanoyl-Asp(OBut)-Glu(OBut)-Val-Asp(OBut)]-N′-pentafluorobenzoyl-Rhodamine 110 (SEQ ID NO:5)”, the step yield is reported as 64%. Work on “N-[Z-Asp(OBut)-Glu(OBut)-Val-Asp(OBut)]-N′-(2,4-bis(dodecanemercapto)-3,5,6trifluorobenzoyl)-Rhodamine 110 (SEQ ID NO:5)” yielded a step yield of 82%.
